The whole screen tested about 300,000 compounds, of which about 5,400 (1.8%) were called active. Inconclusive means that the source gave no clear call. Such entries were picked first, then a sample of the others. Calls come from the whole dose curve; tested in HEK293 cells. Potencies beside an inconclusive call are fits to weak or partial responses and may not hold up.
Assay: qHTS for inhibitors of binding or entry into cells for Marburg Virus
Details: Marburg virus pseudotyped entry inhibition, cell reporter; activity change, negative = inhibition: at 37.8 µM (top of the series) unless noted
% is set by controls: 0 for no effect and ±100 for the full control effect; potency is the fitted concentration of half-maximal effect.

Row | SMILES | Potency | activity change, negative = inhibition
1 | CC(C)CN1C(=O)c2ccc(C(=O)Nc3ccccn3)cc2C1=O | inactive | –
2 | COc1ccc2cc(C(C)C(=O)NC3CCC(O)CC3)ccc2c1 (stereo not drawn) | inconclusive: 5.62 µM [activator, single point] | –
3 | O=C(CCNS(=O)(=O)c1ccc(Cl)cc1)N1CCC2(O)CCCCC2C1 (stereo not drawn) | – | inactive: 14.2%
4 | CC(C)CCn1cnc2c(sc3nc4c(cc32)CSC(C)(C)C4)c1=O | – | inactive: -12.9%
5 | COc1ccc(N(CC(=O)NCCSc2ccc(C)cc2)S(=O)(=O)c2ccccc2)c(OC)c1 | inconclusive: 35.5 µM [inhibitor, single point] | –
6 | N#Cc1cn(-c2ccccc2)nc1-c1ccco1 | inconclusive: 7.3 µM [activator, partial curve] | –
7 | CCc1ccc(C(=O)c2cn(CC(=O)Nc3ccc(C)c(C)c3)c3ccccc3c2=O)cc1 | inconclusive: 14.1 µM [inhibitor, single point] | –
8 | COc1ccc(OCC(=O)N/N=C/c2ccc(O[C@@H]3O[C@H](CO)[C@@H](O)[C@H](O)[C@H]3O)cc2)cc1 | inconclusive: 0.58 µM [inhibitor, full curve] | –
9 | CCc1cc2c(nc1CC)CCN(CCC(C)=NO[C@@H](C)CN1CCCc3nc(C)c(C)cc31)C2 | – | inactive: -24.3% [at 14.2 µM]
10 | O=C(Cc1ccc(Cl)cc1)Nc1cc(S(=O)(=O)N2CCOCC2)ccc1N1CCCC1 | inconclusive: 35.5 µM [inhibitor, single point] | –
11 | CN1/C(=C/C(=O)c2nc(S(C)(=O)=O)ncc2Cl)C(C)(C)c2ccccc21 | inconclusive: 22.4 µM [inhibitor, single point] | –
12 | FC(F)(F)c1cccc(N2CCN(C(=S)NCC3CCCO3)CC2)c1 (stereo not drawn) | inconclusive: 28.2 µM [inhibitor, single point] | –
13 | C=CCn1c(SCc2nc3sc(C(=O)O)c(C)c3c(=O)[nH]2)nnc1-c1ccccc1 | inconclusive: 0.631 µM [inhibitor, full curve, poor fit] | –
14 | Cc1ccc2c(c1)cc1c(=O)n(CC(=O)N3CCCCC3)nc(C)n12 | – | inactive: 1.36% [at 46.1 µM]
15 | O=C(c1ccc2c(c1)N(Cc1ccccc1F)C(=O)c1ccccc1S2=O)N1CCOCC1 (stereo not drawn) | – | inactive: 10.6% [at 46.1 µM]
16 | COc1cc(C(=O)OCCNC(=O)c2ccncc2)cc(OC)c1OC | – | inactive: 14.1%
17 | CC/C(=N\OC(=O)c1ccc(OC(C)C)cc1)c1ccc(C)cc1 | inconclusive: 4.47 µM [activator, single point] | –
18 | O=C(CCC(=O)OCc1ccc([N+](=O)[O-])cc1Cl)Nc1ccccc1 | – | inactive: -3.56%
19 | O=C(c1cc(-c2ccc3c(c2)OCO3)on1)N1CCCCC1 | inconclusive: 5.01 µM [inhibitor, full curve, poor fit] | –
20 | CCOc1ccccc1N1CCN(C(=S)NCc2ccco2)CC1 | inconclusive: 35.5 µM [activator, partial curve, poor fit] | –
21 | N#CC(CC(=O)c1ccc(F)cc1)c1ccc2c(c1)OCO2 (stereo not drawn) | inconclusive: 39.8 µM [inhibitor, partial curve, poor fit] | –
22 | Nc1c(-c2ccccc2)nnn1Cc1ccccc1 | inconclusive: 35.5 µM [inhibitor, single point] | –
23 | CCOC(=O)C(=N/O)/C(C)=N/NC(=O)C(=O)Nc1cc(Cl)ccc1Cl | inconclusive: 11.2 µM [inhibitor, partial curve, poor fit] | –

Row | SMILES | Potency | activity change, negative = inhibition
24 | Cc1cc(NC(=O)CCC(=O)N(CC(C)C)C(C(=O)NC(C)(C)C)c2ccccc2Cl)no1 (stereo not drawn) | inconclusive: 20 µM [inhibitor, partial curve, poor fit] | –
25 | Cc1ccc(C(=O)N/C(=C\c2ccc3c(c2)OCO3)C(=O)Nc2ccc(C(=O)O)cc2)cc1 | inconclusive: 15.8 µM [activator, single point] | –
26 | CC(=O)c1ccc(-n2nnnc2SCC(=O)Nc2cccc(NC(=O)c3ccco3)c2)cc1 | inconclusive: 8.91 µM [inhibitor, partial curve, poor fit] | –
27 | CCCCCCCCOC(=O)c1ccc(N)cc1 | – | inactive: -15.2%
28 | Cn1c(SCc2cccc([N+](=O)[O-])c2)nc2ccccc2c1=O | inconclusive: 35.5 µM [inhibitor, single point] | –
29 | Oc1ccccc1CNc1ccc(Br)cn1 | inconclusive: 0.282 µM [inhibitor, partial curve, poor fit] | –
30 | COc1ccc(O)c(/C=N/NC(=O)CN2CCS(=O)(=O)CC2)c1 | – | inactive: 10.8% [at 46.1 µM]
31 | CC(C)N(Cc1nc(-c2ccccc2)no1)C(=O)CN(C)S(=O)(=O)c1ccc(Br)cc1 | inconclusive: 32.6 µM [inhibitor, single point] | –
32 | COC(=O)C(CC(=O)c1ccc(Br)cc1)n1cccn1 (stereo not drawn) | – | inactive: 2.36%
33 | O=C(Nc1ccccc1)c1ccc(-c2ccccc2)s1 | inconclusive: 2.82 µM [activator, single point] | –
34 | CC(C)n1c(SCC(=O)Nc2ccc(F)cc2)nc2c(oc3ccccc32)c1=O | – | inactive: 5.69% [at 46.1 µM]
35 | CCC(C)NCCOc1ccc(Br)cc1 (stereo not drawn) | inconclusive: 0.58 µM [activator, full curve, poor fit] | –
36 | CC(C)(C)c1cc(CN2CCCC(O)C2)c(O)c(C(C)(C)C)c1 (stereo not drawn) | inconclusive: 32.6 µM [inhibitor, single point] | –
37 | COc1ccc(Cl)cc1C(=O)Nc1nnn(C)n1 | inconclusive: 0.651 µM [activator, single point] | –
38 | CC(CCc1ccccc1)NC(=O)C(=O)NCCc1ccccc1 (stereo not drawn) | inconclusive: 20 µM [activator, partial curve, poor fit] | –
39 | COc1ccc(C(=O)NCC(=O)N/N=C(\C)c2ccco2)cc1OC | inconclusive: 3.16 µM [inhibitor, single point] | –
40 | c1ccc(Cn2ccc(-c3cnc(-c4ccccc4)s3)n2)cc1 | inconclusive: 35.5 µM [inhibitor, single point] | –
41 | CC(=O)Nc1ccc(NC(=S)Nc2ccc(Br)cc2)cc1 | inconclusive: 31.6 µM [inhibitor, single point] | –
42 | O=C(N/N=C/c1cc(Br)ccc1O)Nc1ccccc1 | inconclusive: 1.12 µM [inhibitor, full curve, poor fit] | –
43 | O=C(NCc1nnnn1-c1ccc(F)cc1)c1ccc([N+](=O)[O-])o1 | inconclusive: 8.91 µM [inhibitor, partial curve, poor fit] | –
44 | COc1ccccc1N(C)S(=O)(=O)c1ccc(Cl)c(C(=O)Nc2cccc(C)n2)c1 | inconclusive: 8.91 µM [inhibitor, partial curve, poor fit] | –
45 | CCCC(=O)C1=C(O)C(C(=O)OC)C(C)(C)CC1=Nc1ccccc1 (stereo not drawn) | – | inactive: -21.2% [at 46.1 µM]
46 | COC(=O)c1c(-c2cccs2)csc1NC(=O)CSc1ncnc2sc(C)c(C)c12 | inconclusive: 13 µM [inhibitor, partial curve] | –

Full records, quoted from the list.
Cn1c(SCc2cccc([N+](=O)[O-])c2)nc2ccccc2c1=O is listed with Potency: inconclusive: 35.5 µM [inhibitor, single point]
Cc1ccc(C(=O)N/C(=C\c2ccc3c(c2)OCO3)C(=O)Nc2ccc(C(=O)O)cc2)cc1 is listed with Potency: inconclusive: 15.8 µM [activator, single point]
CC(C)(C)c1cc(CN2CCCC(O)C2)c(O)c(C(C)(C)C)c1 (stereo not drawn) is listed with Potency: inconclusive: 32.6 µM [inhibitor, single point]

Carrying on:

Row | SMILES | Potency | activity change, negative = inhibition
47 | CC(=O)c1c(N2CCOCC2)nc2ccc(Br)cc2c1-c1ccccc1 | inconclusive: 17.8 µM [inhibitor, partial curve, poor fit] | –
48 | C=CCn1c(=S)[nH]c2ccccc2c1=O | inactive | –
49 | CC(c1ccccc1)c1nnc(NC(=O)Nc2ccccc2)s1 (stereo not drawn) | inconclusive: 20 µM [inhibitor, partial curve, poor fit] | –
50 | O=C(CSC1=NCCS1)Nc1ccc(F)cc1 | inconclusive: 7.94 µM [inhibitor, partial curve, poor fit] | –
51 | CCOC(=O)c1oc2ccc(Br)cc2c1COC(=O)C1=COCCO1 | – | inactive: -10.5% [at 46.1 µM]
52 | COc1ccc2cc(-c3cc(C(=O)OCC(=O)NC4CCS(=O)(=O)C4)c4ccccc4n3)ccc2c1 (stereo not drawn) | active: 3.16 µM | –
53 | CCC1(CC)C(=O)N=C2c3ccccc3C(=O)N21 | inconclusive: 2.51 µM [activator, partial curve, poor fit] | –
54 | Cc1c(C(=O)OCC(=O)N(CCC#N)c2ccccc2)oc2c1ccc1ccccc12 | inconclusive: 20.6 µM [inhibitor, single point] | –
55 | Cc1cc(C)cc(OCc2ccc(C(=O)Nc3ccccc3F)o2)c1 | – | inactive: 1.99% [at 46.1 µM]
56 | CCSc1nnc(NC(=O)COc2ccc3ccccc3c2)s1 | – | inactive: 11.8%
57 | CC(C)Oc1ccc(S(=O)(=O)N2CCOCC2)cc1NC(=O)CCCSc1ccccc1 | inconclusive: 17.8 µM [inhibitor, single point] | –
58 | O=C(Nc1nccs1)c1ccccc1[N+](=O)[O-] | – | inactive: 0.0343%
59 | COc1ccc(C2N(S(=O)(=O)c3ccccc3)CCN2S(=O)(=O)c2ccc(C)cc2)cc1 (stereo not drawn) | inconclusive: 16.4 µM [inhibitor, single point] | –
60 | CCOc1ccc(NC(=O)CCS(=O)(=O)c2cccc3nonc23)cc1 | inconclusive: 5.62 µM [inhibitor, single point] | –
61 | O=S(=O)(c1cccc(-c2csc(-c3cccnc3)n2)c1)N1CCOCC1 | – | inactive: -10.7% [at 46.1 µM]
62 | CC(Sc1ccccc1)C(=O)Nc1ccccc1C(=O)N1CCOCC1 (stereo not drawn) | inconclusive: 5.62 µM [inhibitor, single point] | –
63 | O=C(Nc1ccc(F)c(S(=O)(=O)N2CCOCC2)c1)C1CCCCC1 | inconclusive: 0.398 µM [activator, partial curve, poor fit] | –
64 | O=C(NNC(=O)[C@@H]1CCCC[C@@H]1C(=O)O)Nc1ccccc1 | – | inactive: 3.5%
65 | COc1ccc(/C=C/C(=O)Nc2sc3c(c2C(N)=O)CCC(C)C3)cc1OC (stereo not drawn) | – | inactive: 12.6% [at 46.1 µM]
66 | N#CCCCSc1nnc(CSc2nc3ccccc3s2)n1-c1ccccc1 | inconclusive: 35.5 µM [inhibitor, single point] | –
67 | O=C(c1ccc(CS(=O)Cc2ccccc2Cl)o1)N1CCN(c2cccc(Cl)c2)CC1 (stereo not drawn) | inconclusive: 3.98 µM [inhibitor, full curve, poor fit] | –
68 | COC(=O)c1[nH]c2ccc(C)cc2c1NC(=O)CN1CCc2cc(OC)c(OC)cc2C1 | inconclusive: 15.8 µM [inhibitor, partial curve, poor fit] | –

Reference: PubChem BioAssay AID540276 (National Center for Advancing Translational Sciences (NCATS), 2011)
